Data on 39 targets can be found in the supplement of paper PMC6411743.

Chains of the proteins cited; added tags and fusions are not shown. Lines headed by an entry give the natural chain unless they say otherwise; changes in a name come on top.
UniProt Q9UET6: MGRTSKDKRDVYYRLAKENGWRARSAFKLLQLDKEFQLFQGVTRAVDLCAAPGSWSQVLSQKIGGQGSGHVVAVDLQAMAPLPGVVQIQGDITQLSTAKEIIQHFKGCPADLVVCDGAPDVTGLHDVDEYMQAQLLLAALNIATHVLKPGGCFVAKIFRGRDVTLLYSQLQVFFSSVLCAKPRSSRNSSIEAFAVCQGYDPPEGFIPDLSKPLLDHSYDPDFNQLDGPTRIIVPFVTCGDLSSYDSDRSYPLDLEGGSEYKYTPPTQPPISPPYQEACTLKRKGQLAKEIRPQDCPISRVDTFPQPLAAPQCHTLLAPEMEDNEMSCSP
UniProt Q9ULP9: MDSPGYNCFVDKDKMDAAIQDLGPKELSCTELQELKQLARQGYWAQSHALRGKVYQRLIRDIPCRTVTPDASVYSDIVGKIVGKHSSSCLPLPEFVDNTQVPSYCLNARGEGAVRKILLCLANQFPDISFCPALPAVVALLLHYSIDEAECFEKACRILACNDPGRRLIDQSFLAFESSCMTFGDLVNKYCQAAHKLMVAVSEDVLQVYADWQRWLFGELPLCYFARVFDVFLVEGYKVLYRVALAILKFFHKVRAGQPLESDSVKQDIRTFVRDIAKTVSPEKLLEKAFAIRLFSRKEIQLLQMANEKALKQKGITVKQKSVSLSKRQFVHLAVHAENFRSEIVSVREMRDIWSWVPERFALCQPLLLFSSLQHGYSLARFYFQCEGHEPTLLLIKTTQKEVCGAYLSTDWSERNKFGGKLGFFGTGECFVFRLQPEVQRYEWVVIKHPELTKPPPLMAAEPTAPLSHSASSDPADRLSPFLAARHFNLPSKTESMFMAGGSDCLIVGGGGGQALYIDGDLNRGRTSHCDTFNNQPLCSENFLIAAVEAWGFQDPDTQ
UniProt Q9UKX7: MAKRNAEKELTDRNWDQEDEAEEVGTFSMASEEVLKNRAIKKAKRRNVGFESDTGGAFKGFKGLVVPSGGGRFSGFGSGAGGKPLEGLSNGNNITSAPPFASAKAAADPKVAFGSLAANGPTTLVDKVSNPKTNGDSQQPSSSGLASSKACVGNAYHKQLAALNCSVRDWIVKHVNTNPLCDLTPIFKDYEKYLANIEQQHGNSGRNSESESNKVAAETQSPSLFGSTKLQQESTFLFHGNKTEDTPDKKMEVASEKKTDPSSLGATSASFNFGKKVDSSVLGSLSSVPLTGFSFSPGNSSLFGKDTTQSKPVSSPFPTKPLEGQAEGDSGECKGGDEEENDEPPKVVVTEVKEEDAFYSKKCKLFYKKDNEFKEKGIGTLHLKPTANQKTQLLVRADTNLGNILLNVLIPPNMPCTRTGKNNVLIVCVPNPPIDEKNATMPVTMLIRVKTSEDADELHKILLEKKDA
UniProt Q9UJU6: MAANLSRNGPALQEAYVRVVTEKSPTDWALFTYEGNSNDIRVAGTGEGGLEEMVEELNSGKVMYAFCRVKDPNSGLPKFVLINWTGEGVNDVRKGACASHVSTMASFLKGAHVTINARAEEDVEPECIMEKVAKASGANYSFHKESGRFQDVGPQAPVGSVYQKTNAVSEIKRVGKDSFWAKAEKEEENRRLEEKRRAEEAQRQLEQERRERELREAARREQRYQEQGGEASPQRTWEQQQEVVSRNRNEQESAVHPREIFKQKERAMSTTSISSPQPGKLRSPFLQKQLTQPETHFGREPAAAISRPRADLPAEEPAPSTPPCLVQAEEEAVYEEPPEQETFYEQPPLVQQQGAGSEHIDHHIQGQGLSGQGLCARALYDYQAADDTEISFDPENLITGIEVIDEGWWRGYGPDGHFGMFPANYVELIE
UniProt Q9UBV2: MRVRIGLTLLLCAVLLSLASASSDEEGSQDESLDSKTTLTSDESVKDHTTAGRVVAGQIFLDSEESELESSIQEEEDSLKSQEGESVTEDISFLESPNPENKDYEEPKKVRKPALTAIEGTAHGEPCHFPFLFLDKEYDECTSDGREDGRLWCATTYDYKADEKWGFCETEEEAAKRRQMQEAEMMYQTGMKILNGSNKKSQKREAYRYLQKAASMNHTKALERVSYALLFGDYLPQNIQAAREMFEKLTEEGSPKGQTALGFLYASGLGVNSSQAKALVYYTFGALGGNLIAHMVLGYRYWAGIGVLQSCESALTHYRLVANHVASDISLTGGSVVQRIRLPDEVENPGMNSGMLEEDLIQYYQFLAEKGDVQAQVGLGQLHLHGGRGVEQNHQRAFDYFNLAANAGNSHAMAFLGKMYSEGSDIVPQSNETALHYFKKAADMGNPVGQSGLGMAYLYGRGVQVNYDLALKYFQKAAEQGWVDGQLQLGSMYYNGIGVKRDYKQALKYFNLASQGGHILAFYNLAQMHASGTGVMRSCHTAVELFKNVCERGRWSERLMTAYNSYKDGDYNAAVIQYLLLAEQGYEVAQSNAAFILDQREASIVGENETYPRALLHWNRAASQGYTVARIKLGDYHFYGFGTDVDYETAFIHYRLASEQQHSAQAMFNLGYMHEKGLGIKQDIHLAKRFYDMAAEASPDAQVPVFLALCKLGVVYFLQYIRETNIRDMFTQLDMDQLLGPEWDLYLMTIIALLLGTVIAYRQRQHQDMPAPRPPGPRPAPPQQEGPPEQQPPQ
UniProt Q9UNF0: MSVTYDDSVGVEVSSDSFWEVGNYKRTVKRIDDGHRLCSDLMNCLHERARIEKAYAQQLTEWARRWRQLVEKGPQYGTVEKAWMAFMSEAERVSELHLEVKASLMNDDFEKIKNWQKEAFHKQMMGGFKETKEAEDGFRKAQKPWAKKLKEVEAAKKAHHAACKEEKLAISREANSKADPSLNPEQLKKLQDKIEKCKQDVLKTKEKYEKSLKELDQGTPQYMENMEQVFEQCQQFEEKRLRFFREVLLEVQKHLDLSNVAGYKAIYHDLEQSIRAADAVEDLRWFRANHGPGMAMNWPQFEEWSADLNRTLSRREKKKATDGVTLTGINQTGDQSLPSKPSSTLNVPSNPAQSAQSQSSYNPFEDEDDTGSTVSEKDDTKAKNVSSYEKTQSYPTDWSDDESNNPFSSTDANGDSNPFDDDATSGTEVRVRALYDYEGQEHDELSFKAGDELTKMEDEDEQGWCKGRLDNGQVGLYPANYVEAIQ
UniProt Q9ULV4, whole entry: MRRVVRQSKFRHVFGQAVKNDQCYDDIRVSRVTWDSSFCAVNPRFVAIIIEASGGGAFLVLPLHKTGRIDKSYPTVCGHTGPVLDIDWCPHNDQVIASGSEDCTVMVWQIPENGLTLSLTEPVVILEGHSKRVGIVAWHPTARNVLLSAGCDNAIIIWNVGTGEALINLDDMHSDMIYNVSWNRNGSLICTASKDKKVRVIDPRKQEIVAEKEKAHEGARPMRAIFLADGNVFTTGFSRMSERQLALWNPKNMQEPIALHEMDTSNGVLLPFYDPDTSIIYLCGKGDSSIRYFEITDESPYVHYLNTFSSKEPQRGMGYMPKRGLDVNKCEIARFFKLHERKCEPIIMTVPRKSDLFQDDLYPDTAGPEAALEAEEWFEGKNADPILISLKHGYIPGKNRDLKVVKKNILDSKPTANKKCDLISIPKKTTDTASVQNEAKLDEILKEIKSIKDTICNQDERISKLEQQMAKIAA
UniProt Q9Y259: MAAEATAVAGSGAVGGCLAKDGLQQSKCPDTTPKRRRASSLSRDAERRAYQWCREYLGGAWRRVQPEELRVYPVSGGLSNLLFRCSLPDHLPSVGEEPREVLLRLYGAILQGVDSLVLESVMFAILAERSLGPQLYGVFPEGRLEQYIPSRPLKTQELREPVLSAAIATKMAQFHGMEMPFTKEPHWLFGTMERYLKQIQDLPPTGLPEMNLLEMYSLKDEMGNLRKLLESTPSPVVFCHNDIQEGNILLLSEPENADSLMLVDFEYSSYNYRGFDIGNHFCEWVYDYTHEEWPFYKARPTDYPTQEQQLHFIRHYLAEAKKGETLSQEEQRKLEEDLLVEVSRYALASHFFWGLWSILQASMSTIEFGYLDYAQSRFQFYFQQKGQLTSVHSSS
UniProt Q9UHV9, whole entry: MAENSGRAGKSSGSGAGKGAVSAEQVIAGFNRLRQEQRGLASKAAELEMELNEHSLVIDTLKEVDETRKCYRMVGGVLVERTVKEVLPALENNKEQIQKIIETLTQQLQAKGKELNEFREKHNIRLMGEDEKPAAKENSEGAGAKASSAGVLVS
UniProt Q9UPN7: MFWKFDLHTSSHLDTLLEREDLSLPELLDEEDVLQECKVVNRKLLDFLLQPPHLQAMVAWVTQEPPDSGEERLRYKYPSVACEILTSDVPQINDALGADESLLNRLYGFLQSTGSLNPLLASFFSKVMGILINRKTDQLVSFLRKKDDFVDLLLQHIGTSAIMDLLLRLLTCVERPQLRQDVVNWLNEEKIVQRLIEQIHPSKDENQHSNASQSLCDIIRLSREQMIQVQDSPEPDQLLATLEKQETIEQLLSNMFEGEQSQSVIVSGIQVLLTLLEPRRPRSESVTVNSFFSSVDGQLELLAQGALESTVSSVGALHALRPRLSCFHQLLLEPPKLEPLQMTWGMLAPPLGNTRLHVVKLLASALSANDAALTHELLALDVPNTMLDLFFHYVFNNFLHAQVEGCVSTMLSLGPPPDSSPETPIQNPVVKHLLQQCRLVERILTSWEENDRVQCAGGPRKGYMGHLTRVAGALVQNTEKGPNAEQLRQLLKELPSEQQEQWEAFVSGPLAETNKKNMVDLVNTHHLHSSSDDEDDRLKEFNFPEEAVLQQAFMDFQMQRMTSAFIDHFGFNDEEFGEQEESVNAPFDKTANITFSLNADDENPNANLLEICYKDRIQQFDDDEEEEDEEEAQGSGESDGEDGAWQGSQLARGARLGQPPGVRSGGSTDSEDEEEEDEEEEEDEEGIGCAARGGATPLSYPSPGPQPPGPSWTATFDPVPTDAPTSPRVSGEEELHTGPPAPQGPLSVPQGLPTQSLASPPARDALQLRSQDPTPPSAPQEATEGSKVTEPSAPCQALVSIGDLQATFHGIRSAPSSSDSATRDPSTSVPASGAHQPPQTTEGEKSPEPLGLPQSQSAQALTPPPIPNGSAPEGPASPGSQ
UniProt Q9UHB6: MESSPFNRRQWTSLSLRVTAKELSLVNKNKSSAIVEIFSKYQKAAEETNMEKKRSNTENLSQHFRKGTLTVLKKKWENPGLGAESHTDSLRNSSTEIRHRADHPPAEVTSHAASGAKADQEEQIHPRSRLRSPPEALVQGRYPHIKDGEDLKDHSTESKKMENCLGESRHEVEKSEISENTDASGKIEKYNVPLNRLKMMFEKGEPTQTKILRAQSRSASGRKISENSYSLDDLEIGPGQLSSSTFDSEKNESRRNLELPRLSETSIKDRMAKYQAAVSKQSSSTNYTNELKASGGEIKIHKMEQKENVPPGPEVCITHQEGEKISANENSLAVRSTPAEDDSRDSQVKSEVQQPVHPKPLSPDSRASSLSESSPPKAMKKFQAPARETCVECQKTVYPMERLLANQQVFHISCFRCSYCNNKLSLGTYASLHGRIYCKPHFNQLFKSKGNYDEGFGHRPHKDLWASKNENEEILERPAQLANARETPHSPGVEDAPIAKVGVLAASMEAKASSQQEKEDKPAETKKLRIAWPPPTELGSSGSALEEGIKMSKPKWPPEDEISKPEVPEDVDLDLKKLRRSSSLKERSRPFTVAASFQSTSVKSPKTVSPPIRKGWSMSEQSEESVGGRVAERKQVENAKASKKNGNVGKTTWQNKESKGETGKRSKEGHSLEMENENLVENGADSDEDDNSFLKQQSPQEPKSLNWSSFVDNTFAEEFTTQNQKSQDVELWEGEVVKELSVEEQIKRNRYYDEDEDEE
UniProt Q9UKW4: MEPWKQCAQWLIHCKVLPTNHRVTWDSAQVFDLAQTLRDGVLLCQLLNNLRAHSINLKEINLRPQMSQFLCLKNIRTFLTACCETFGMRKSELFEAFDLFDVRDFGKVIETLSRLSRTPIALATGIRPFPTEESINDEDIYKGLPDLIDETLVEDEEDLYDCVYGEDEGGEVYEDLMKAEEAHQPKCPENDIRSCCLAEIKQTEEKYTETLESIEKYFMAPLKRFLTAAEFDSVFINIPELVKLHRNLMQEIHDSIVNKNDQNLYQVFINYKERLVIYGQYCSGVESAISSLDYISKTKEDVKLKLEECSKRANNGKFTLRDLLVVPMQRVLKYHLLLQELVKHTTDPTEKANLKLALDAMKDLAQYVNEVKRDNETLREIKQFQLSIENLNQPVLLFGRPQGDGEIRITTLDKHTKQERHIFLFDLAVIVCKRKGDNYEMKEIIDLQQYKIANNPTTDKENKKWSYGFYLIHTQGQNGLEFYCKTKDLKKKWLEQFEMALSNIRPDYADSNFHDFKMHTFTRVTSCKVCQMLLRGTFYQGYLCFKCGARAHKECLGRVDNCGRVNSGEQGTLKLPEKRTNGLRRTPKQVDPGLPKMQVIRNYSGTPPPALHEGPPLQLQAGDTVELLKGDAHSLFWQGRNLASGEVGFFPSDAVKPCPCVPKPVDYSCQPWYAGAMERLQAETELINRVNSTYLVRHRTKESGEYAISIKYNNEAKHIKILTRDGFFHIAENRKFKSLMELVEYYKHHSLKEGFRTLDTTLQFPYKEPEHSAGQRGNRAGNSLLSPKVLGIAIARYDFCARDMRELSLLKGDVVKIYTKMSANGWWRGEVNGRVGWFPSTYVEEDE

Compound in the assay: Nc1ncnc2c1ncn2[C@@H]1O[C@H](COP(=O)(O)OP(=O)(O)OP(=O)(O)O)[C@@H](O)[C@H]1O [adenosine triphosphate]
Briefly: NP40-soluble protein abundance relative to vehicle (solubility fold change) (ratio); higher = more soluble protein in presence of ATP. The essentials: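 Each value is a fold change relative to the detergent-processed vehicle, calculated per replicate from vsn-normalised intensities. Jurkat crude lysate received eight concentrations (0.1 to 10 mM) for 10 min at room temperature and 3 min at 37 °C, then was solubilised in 0.8% NP40 with benzonase (60 min, 4 °C). The ultracentrifuged supernatant was TMT-labelled and run by LC-MS/MS in three independent experiments.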

± gives the standard deviation of the averaged measurements. Only a part is listed here, and it is no random draw. Most values lie at the level of the controls, where differences are scatter.

With UniProt Q9UET6 and related entries, the NP40-soluble protein abundance amounted to 1.05 ± 0.03 (concentration: 0.1mM) and 1.13 ± 0.091 (concentration: 0.5mM).
UniProt Q9Y221 and related entries: the NP40-soluble protein abundance turned out to be 1.06 ± 0.037 (concentration: 0.1mM) and 1.18 ± 0.11 (concentration: 0.5mM).
Turning to UniProt Q9ULP9 and related entries, the NP40-soluble protein abundance (concentration: 0.1mM) was 1.03 ± 0.08 and the NP40-soluble protein abundance (concentration: 0.5mM) is 1 ± 0.035.
Turning to GGA2 (UniProt Q9UJY4), the NP40-soluble protein abundance was 1 ± 0.041 (concentration: 0.1mM) and 0.96 ± 0.032 (concentration: 0.5mM).
Regarding UniProt Q9UKX7 and related entries, the NP40-soluble protein abundance stood at 1.01 ± 0.013 (concentration: 0.1mM) and 1.11 ± 0.046 (concentration: 0.5mM).
For RCC2 (UniProt Q9P258), the NP40-soluble protein abundance was determined as 1.05 ± 0.074 (concentration: 0.1mM) and 1.04 ± 0.039 (concentration: 0.5mM).
On to UniProt Q9Y223 and related entries, for which the NP40-soluble protein abundance (concentration: 0.1mM) was determined as 1.03 ± 0.071 and the NP40-soluble protein abundance (concentration: 0.5mM) is 1 ± 0.025.
On the same counts, the results for CHD7 (UniProt Q9P2D1) are 1.03 ± 0.045 and 1.01 ± 0.1.
On the same counts, the results for MAGED2 (UniProt Q9UNF1) are 0.95 ± 0.01 and 0.956 ± 0.022.
Turning to UniProt Q9UGN5-2, the NP40-soluble protein abundance (concentration: 0.1mM) came out at 0.978 ± 0.063 and the NP40-soluble protein abundance (concentration: 0.5mM) amounted to 1.03 ± 0.038.
Take UniProt Q9UJU2 and related entries: the NP40-soluble protein abundance is, setting by setting: (concentration: 0.1mM) 0.932 ± 0.034; (concentration: 0.5mM) 0.946 ± 0.043.
With UniProt Q9UQ49 and related entries, the NP40-soluble protein abundance is, setting by setting: (concentration: 0.1mM) 0.951 ± 0.12; (concentration: 0.5mM) 0.969 ± 0.09.
Regarding CYB5R1 (UniProt Q9UHQ9), the NP40-soluble protein abundance stood at 1.03 ± 0.079 (concentration: 0.1mM) and 1.06 ± 0.097 (concentration: 0.5mM).
PRPF19 (UniProt Q9UMS4): the NP40-soluble protein abundance was 1.02 ± 0.048 (concentration: 0.1mM) and 1.01 ± 0.039 (concentration: 0.5mM).
For MED13 (UniProt Q9UHV7), the NP40-soluble protein abundance was 1.2 ± 0.11 (concentration: 0.1mM) and 1.13 ± 0.091 (concentration: 0.5mM).
For the target NXF1 (UniProt Q9UBU9), the NP40-soluble protein abundance was found to be 1.01 ± 0.023 (concentration: 0.1mM) and 1.02 ± 0.047 (concentration: 0.5mM).
The matching figures for ABT1 (UniProt Q9ULW3): 1.02 ± 0.069 and 0.986 ± 0.051.
On the same counts, the results for UniProt Q9UHA4 are 1.06 ± 0.12 and 1 ± 0.14.
As to UniProt Q9P2K3-3, the NP40-soluble protein abundance was determined as 0.943 ± 0.063 (concentration: 0.1mM) and 0.978 ± 0.04 (concentration: 0.5mM).
In the case of UniProt Q9UJU6 and related entries, the NP40-soluble protein abundance reads like this: (concentration: 0.1mM) 0.98 ± 0.022; (concentration: 0.5mM) 0.991 ± 0.03.
As to SEL1L (UniProt Q9UBV2), the NP40-soluble protein abundance reads like this: (concentration: 0.1mM) 0.98 ± 0.017; (concentration: 0.5mM) 0.981 ± 0.042.
Take ZHX1 (UniProt Q9UKY1): the NP40-soluble protein abundance is, setting by setting: (concentration: 0.1mM) 1.02 ± 0.088; (concentration: 0.5mM) 1.06 ± 0.014.
As to RNF7 (UniProt Q9UBF6), the NP40-soluble protein abundance was found to be 1.19 ± 0.25 (concentration: 0.1mM) and 0.956 ± 0.076 (concentration: 0.5mM).
For LNPEP (UniProt Q9UIQ6), the NP40-soluble protein abundance runs as follows: (concentration: 0.1mM) 0.908 ± 0.037; (concentration: 0.5mM) 0.915 ± 0.052; (concentration: 1mM) 0.914 ± 0.015; (concentration: 2mM) 0.937 ± 0.021; (concentration: 4mM) 0.909 ± 0.022; (concentration: 6mM) 0.918 ± 0.035. In addition, the NP40-soluble protein abundance by setting is: (concentration: 8mM) 0.882 ± 0.045; (concentration: 10mM) 0.872 ± 0.038.
With EIF2AK4 (UniProt Q9P2K8), the NP40-soluble protein abundance amounted to 1.04 ± 0.062 (concentration: 0.1mM); 1.04 ± 0.058 (concentration: 0.5mM); 1.04 ± 0.096 (concentration: 1mM); 1.02 ± 0.078 (concentration: 2mM); 1.02 ± 0.071 (concentration: 4mM); 0.967 ± 0.073 (concentration: 6mM). Besides, the NP40-soluble protein abundance was determined as 1.03 ± 0.056 (concentration: 8mM) and 1.03 ± 0.082 (concentration: 10mM).
UniProt Q9UNF0 and related entries: the NP40-soluble protein abundance (concentration: 0.1mM) was 1 ± 0.017; the NP40-soluble protein abundance (concentration: 0.5mM) came to 0.992 ± 0.054; the NP40-soluble protein abundance (concentration: 1mM) was 0.963 ± 0.04; the NP40-soluble protein abundance (concentration: 2mM) was 0.952 ± 0.024; the NP40-soluble protein abundance (concentration: 4mM) amounted to 0.927 ± 0.011; the NP40-soluble protein abundance (concentration: 6mM) was 0.954 ± 0.023. In addition, the NP40-soluble protein abundance (concentration: 8mM) turned out to be 0.895 ± 0.019 and the NP40-soluble protein abundance (concentration: 10mM) is 0.9 ± 0.049.
Take UniProt Q9ULV4 and related entries: the NP40-soluble protein abundance amounted to 0.922 ± 0.05 (concentration: 0.1mM); 1 ± 0.097 (concentration: 0.5mM); 1.08 ± 0.086 (concentration: 1mM); 1.16 ± 0.1 (concentration: 2mM); 1.24 ± 0.11 (concentration: 4mM); 1.4 ± 0.12 (concentration: 6mM). In addition, the NP40-soluble protein abundance worked out at 1.43 ± 0.13 (concentration: 8mM) and 1.52 ± 0.16 (concentration: 10mM).
Take UniProt Q9Y259 and related entries: the NP40-soluble protein abundance by setting is: (concentration: 0.1mM) 1.05 ± 0.033; (concentration: 0.5mM) 1.02 ± 0.054.
In the case of UniProt Q9UKI8 and related entries, the NP40-soluble protein abundance runs as follows: (concentration: 0.1mM) 1.06 ± 0.029; (concentration: 0.5mM) 1.04 ± 0.028; (concentration: 1mM) 0.986 ± 0.039; (concentration: 2mM) 0.998 ± 0.025; (concentration: 4mM) 1 ± 0.059; (concentration: 6mM) 0.993 ± 0.041. Further, the NP40-soluble protein abundance is 0.953 ± 0.021 (concentration: 8mM) and 0.977 ± 0.054 (concentration: 10mM).
Consider UniProt Q9UG63 and related entries, for which the NP40-soluble protein abundance by setting is: (concentration: 0.1mM) 0.982 ± 0.021; (concentration: 0.5mM) 0.9991 ± 0.0098; (concentration: 1mM) 1.09 ± 0.033; (concentration: 2mM) 1.15 ± 0.039; (concentration: 4mM) 1.42 ± 0.019; (concentration: 6mM) 1.67 ± 0.095. In addition, the NP40-soluble protein abundance runs as follows: (concentration: 8mM) 2.16 ± 0.093; (concentration: 10mM) 2.59 ± 0.25.
Consider PFDN2 (UniProt Q9UHV9), for which the NP40-soluble protein abundance worked out at 0.898 ± 0.081 (concentration: 0.1mM) and 0.872 ± 0.11 (concentration: 0.5mM).
Turning to UniProt Q9UPN7, the NP40-soluble protein abundance was 0.972 ± 0.03 (concentration: 0.1mM); 0.959 ± 0.037 (concentration: 0.5mM); 0.945 ± 0.014 (concentration: 1mM); 0.941 ± 0.046 (concentration: 2mM); 0.941 ± 0.029 (concentration: 4mM); 0.917 ± 0.041 (concentration: 6mM). Besides, the NP40-soluble protein abundance runs as follows: (concentration: 8mM) 0.924 ± 0.018; (concentration: 10mM) 0.93 ± 0.037.
Regarding UniProt Q9UHB6 and related entries, the NP40-soluble protein abundance (concentration: 0.1mM) worked out at 0.801 ± 0.055; the NP40-soluble protein abundance (concentration: 0.5mM) came to 0.945 ± 0.071; the NP40-soluble protein abundance (concentration: 1mM) came out at 1.05 ± 0.14; the NP40-soluble protein abundance (concentration: 2mM) stood at 1.16 ± 0.14; the NP40-soluble protein abundance (concentration: 4mM) turned out to be 1.35 ± 0.16; the NP40-soluble protein abundance (concentration: 6mM) was found to be 1.56 ± 0.21. Besides, the NP40-soluble protein abundance reads like this: (concentration: 8mM) 1.62 ± 0.12; (concentration: 10mM) 1.86 ± 0.18.
For the target UniProt Q9UH03 and related entries, the NP40-soluble protein abundance turned out to be 0.998 ± 0.033 (concentration: 0.1mM) and 1.07 ± 0.028 (concentration: 0.5mM).
On to UniProt Q9UL54-2, for which the NP40-soluble protein abundance is, setting by setting: (concentration: 0.1mM) 1.22 ± 0.092; (concentration: 0.5mM) 1.28 ± 0.058; (concentration: 1mM) 1.29 ± 0.17; (concentration: 2mM) 1.54 ± 0.35; (concentration: 4mM) 1.57 ± 0.33; (concentration: 6mM) 1.67 ± 0.33. The NP40-soluble protein abundance (concentration: 8mM) is 1.63 ± 0.24 and the NP40-soluble protein abundance (concentration: 10mM) came out at 1.69 ± 0.4.
For UniProt Q9Y232-2|Q9Y232, the NP40-soluble protein abundance is, setting by setting: (concentration: 0.1mM) 0.995 ± 0.062; (concentration: 0.5mM) 1.01 ± 0.037.
As for MAN1B1 (UniProt Q9UKM7), the NP40-soluble protein abundance is, setting by setting: (concentration: 0.1mM) 1.01 ± 0.017; (concentration: 0.5mM) 1.09 ± 0.033.
Turning to NOB1 (UniProt Q9ULX3), the NP40-soluble protein abundance (concentration: 0.1mM) is 0.999 ± 0.028; the NP40-soluble protein abundance (concentration: 0.5mM) was determined as 1.05 ± 0.026; the NP40-soluble protein abundance (concentration: 1mM) was 1.07 ± 0.023; the NP40-soluble protein abundance (concentration: 2mM) is 1.06 ± 0.086; the NP40-soluble protein abundance (concentration: 4mM) is 1.03 ± 0.077; the NP40-soluble protein abundance (concentration: 6mM) came to 1.07 ± 0.13. For the same target, the NP40-soluble protein abundance is 1.08 ± 0.054 (concentration: 8mM) and 1.05 ± 0.065 (concentration: 10mM).
Take UniProt Q9UKW4 and related entries: the NP40-soluble protein abundance is 1.06 ± 0.096 (concentration: 0.1mM) and 1.06 ± 0.076 (concentration: 0.5mM).
